Reference: the supplement of paper PMC5949888
Most values lie at the floor of the assay. Slopes are relative: functional sequences can read slightly below zero.

Test system: Saccharomyces cerevisiae PS128 hsf1 delta, HSF1(1-493) fusion
Assay: growth estimate (transactivation domain function in HSF1 fusion, heat-shock survival) (a.u. (slope of normalised read count over time)); higher = stronger growth at 37°C, i.e. more transactivation activity
Settings: library: random library

Which growth estimate does the source give for SCTCLPRARV here?
The growth estimate was under -0.25.

With ACMHVKLSLVTCVVLHGRDH as the substance, how does the growth estimate read?
Its growth estimate is under -0.25.

Which growth estimate does the source give for SPIQR here?
The growth estimate was under -0.25.

FRKRRVDECPSESA was tested. Which growth estimate did it give?
The growth estimate was under -0.25.

Which growth estimate does the source give for AFGVTLSRRFLNQRHGDCWG here?
The growth estimate was under -0.25.

Which growth estimate does the source give for DRVTALGKQQY here?
Its growth estimate is -0.245.

How did the growth estimate turn out when ILTSLFLDLGRVIRVRI was run?
Its growth estimate is under -0.25.

DLRKRIGEHVTRQPTSCGEA was tested. Which growth estimate did it give?
Its growth estimate is under -0.25.

Which growth estimate does the source give for ESPQSSILLEMYI here?
The growth estimate was under -0.25.

For DYSISSATPLPKRSGSVAER, which growth estimate is on record?
Its growth estimate is under -0.25.

QRGREGQGSLFEQDSLY was tested. Which growth estimate did it give?
The growth estimate was under -0.25.

VWCNGGIRGPAESVRPPERR was tested. Which growth estimate did it give?
The growth estimate was under -0.25.

With YVVHYHSGYLMWTNR as the substance, how does the growth estimate read?
Its growth estimate is under -0.25.

EWDRGQEGPH was tested. Which growth estimate did it give?
The growth estimate was under -0.25.

Which growth estimate does the source give for GVPTFEHSLYSLASHQ here?
Its growth estimate is under -0.25.

How did the growth estimate turn out when IVADKEA was run?
Its growth estimate is under -0.25.

ASGALVPQNTGYFGV was tested. Which growth estimate did it give?
Its growth estimate is -0.182.

With VAVSEGQIRPIGPLTCNTSG as the substance, how does the growth estimate read?
The growth estimate was under -0.25.

With LAVRYPGYPWGRPRGGVRHH as the substance, how does the growth estimate read?
The growth estimate was under -0.25.

For KFMPRLHATPKNRPRN, which growth estimate is on record?
Its growth estimate is under -0.25.

Which growth estimate does the source give for MGTSHRQAGSVAD here?
Its growth estimate is -0.25.

For FILGTPATYALMVLLHTRLR, which growth estimate is on record?
Its growth estimate is under -0.25.

With SEGTLWWAMNQYALALRSHH as the substance, how does the growth estimate read?
Its growth estimate is under -0.25.

Which growth estimate does the source give for HTTREK here?
The growth estimate was under -0.25.

Which growth estimate does the source give for GESCLRFPRACCQALRITRN here?
The growth estimate was under -0.25.

How did the growth estimate turn out when NSICNGHKNGKGAYLAFKLL was run?
The growth estimate was under -0.25.

SGLNGQRLRFSSCYRVKAVS was tested. Which growth estimate did it give?
The growth estimate was under -0.25.

How did the growth estimate turn out when ESTFLRIEASAQDVSGSYQQ was run?
Its growth estimate is under -0.25.

For QISVHTLPATPKRQNRPPPS, which growth estimate is on record?
The growth estimate was under -0.25.

Which growth estimate does the source give for RAGVHWECEC here?
Its growth estimate is under -0.25.

Which growth estimate does the source give for CGTLSDC here?
The growth estimate was 0.127.

Which growth estimate does the source give for PPQCHGKFL here?
The growth estimate was under -0.25.

VMSTGRKSTGTGWLLGSQCG was tested. Which growth estimate did it give?
The growth estimate was -0.232.

Which growth estimate does the source give for ACIYAPDVFRNW here?
Its growth estimate is -0.224.

LLIIQCLVVWRTWV was tested. Which growth estimate did it give?
The growth estimate was under -0.25.

How did the growth estimate turn out when WSHRAAREPEIAPTLLATCP was run?
The growth estimate was under -0.25.

Which growth estimate does the source give for QTSLVGLIPRLLFRPISAMT here?
The growth estimate was under -0.25.

WGGPSSAWASTSLRTPVCWC was tested. Which growth estimate did it give?
The growth estimate was under -0.25.

For LRQSVAY, which growth estimate is on record?
The growth estimate was under -0.25.

With MASSRF as the substance, how does the growth estimate read?
The growth estimate was under -0.25.

How did the growth estimate turn out when VEWGQPAVLPDYSAA was run?
Its growth estimate is under -0.25.

With TGSLELVRTRPTTGLTGLSI as the substance, how does the growth estimate read?
The growth estimate was under -0.25.

Which growth estimate does the source give for YPAGFDSAHRKELTSFAALA here?
The growth estimate was under -0.25.

Which growth estimate does the source give for NTLCRSSHDSGCYS here?
The growth estimate was under -0.25.

With SFYMSCRFIARLTVPGLPPT as the substance, how does the growth estimate read?
The growth estimate was under -0.25.

With SCRRMQRESGDSKLPHGCVP as the substance, how does the growth estimate read?
The growth estimate was under -0.25.

Which growth estimate does the source give for GGKG here?
Its growth estimate is under -0.25.

QQALPSLRKQALRLSGPQTF was tested. Which growth estimate did it give?
Its growth estimate is under -0.25.

SEVPWRQAEVRGR was tested. Which growth estimate did it give?
Its growth estimate is under -0.25.

For VFDGR, which growth estimate is on record?
Its growth estimate is under -0.25.

With LQDRFFYLCLGVRLVSGRE as the substance, how does the growth estimate read?
The growth estimate was under -0.25.

How did the growth estimate turn out when KWGGDTGGQPH was run?
The growth estimate was under -0.25.

How did the growth estimate turn out when PREEDTWYAKDPHGTF was run?
Its growth estimate is under -0.25.

TRCSAQRLPGQPVRVW was tested. Which growth estimate did it give?
The growth estimate was under -0.25.

How did the growth estimate turn out when VWIGRMGSG was run?
Its growth estimate is under -0.25.

With LLFSHVGFAGSQET as the substance, how does the growth estimate read?
Its growth estimate is under -0.25.

How did the growth estimate turn out when ALRGMGDKQSRSPGHQPVLS was run?
The growth estimate was under -0.25.

How did the growth estimate turn out when LVQTYDAPIVTTEN was run?
The growth estimate was under -0.25.

For PHAIALLSRLWTSTEFLLCS, which growth estimate is on record?
The growth estimate was under -0.25.

Which growth estimate does the source give for FHRKEVKGAPLHPPYPVISN here?
The growth estimate was under -0.25.

For AGGTGRTLQELCTTG, which growth estimate is on record?
Its growth estimate is under -0.25.

For IRAPARMGPFLHQMKVNSRV, which growth estimate is on record?
Its growth estimate is under -0.25.

With MWIPPLPSESDRKDGRK as the substance, how does the growth estimate read?
Its growth estimate is under -0.25.

Which growth estimate does the source give for LFPLYLGILIRRIERAVSGA here?
The growth estimate was under -0.25.

With RWVRQCRPGDSNQSIAGRNV as the substance, how does the growth estimate read?
The growth estimate was under -0.25.

WGREPLV was tested. Which growth estimate did it give?
Its growth estimate is under -0.25.

Which growth estimate does the source give for GQTFS here?
The growth estimate was under -0.25.

With TSYGAYIQGYGNGGPS as the substance, how does the growth estimate read?
Its growth estimate is under -0.25.

For SSYCQTYAARQDLAVDTPKM, which growth estimate is on record?
Its growth estimate is under -0.25.

With TSSRAIKKIIRPWDNIPHRG as the substance, how does the growth estimate read?
Its growth estimate is under -0.25.

Which growth estimate does the source give for WCFPTYGTFYSDTPQRVSIL here?
The growth estimate was under -0.25.

How did the growth estimate turn out when VACRPCANVLEQLASRGVRP was run?
The growth estimate was under -0.25.

Which growth estimate does the source give for SLVD here?
Its growth estimate is under -0.25.

For RDGSAGPIGVSTCEYIYSRV, which growth estimate is on record?
Its growth estimate is under -0.25.

For SIEAAS, which growth estimate is on record?
Its growth estimate is -0.243.

For GIKINVPIAWGKRITVRRDC, which growth estimate is on record?
Its growth estimate is under -0.25.

For QQFPTGGDTRLCLSGYRNTV, which growth estimate is on record?
The growth estimate was under -0.25.

SSDISYSGRNLAASPLTGPG was tested. Which growth estimate did it give?
The growth estimate was under -0.25.
